Laboratory results: patent publication US20200270345A1 (JOINT STOCK COMPANY BIOCAD, published 2020)
These are yes or no findings as the source states them, for the method shown. Some binding calls cover weakened binding; strength is not graded here.

By UniProt entry, the sequences of proteins in these tests, tags left out. Where a name states a change or a piece, a line headed by the entry shows the natural chain unless it says otherwise.
UniProt Q08722: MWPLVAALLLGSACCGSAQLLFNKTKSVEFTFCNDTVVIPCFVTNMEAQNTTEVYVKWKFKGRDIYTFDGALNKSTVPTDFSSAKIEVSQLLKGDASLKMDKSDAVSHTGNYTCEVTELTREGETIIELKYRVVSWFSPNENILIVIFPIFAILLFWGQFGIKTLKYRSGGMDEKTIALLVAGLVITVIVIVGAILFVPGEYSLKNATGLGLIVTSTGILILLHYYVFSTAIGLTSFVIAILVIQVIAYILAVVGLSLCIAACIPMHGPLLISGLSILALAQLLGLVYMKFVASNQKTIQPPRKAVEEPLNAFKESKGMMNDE

Target: T1, human CD47-Fc (human, UniProt Q08722 19-134)
T1 construct: Leu19-Val134 is the natural numbering printed; also called human CD47-Fc receptor; human CD47-Fc (Biocad); not shown: Fc tag of the expression plasmid
Assay: BLI (Octet Red 96), CD47-Fc on ARG2 sensor, VHH in growth medium

binding: binds
B1: BCD106-02_L.Alecto.VHHSel2_MP1_G5_37 (VHH)
VHH: AVQLVDSGGGLVQPGGSLRLSCAASRSIFSINAMNWYRQAPGNRREWVAQITDEGITNYVDSVKGRFTITRDNAKNTMYLQMNSLKPEDTAVYYCNAFVITTTSEIYWGQGTTVTVSS
notes: Llama anti-CD47 VHH tested as E. coli culture supernatant; not shown: myc and His6 tags at the C-terminus of the VHH (pET-22)
